PubChem BioAssay AID1671190 (National Center for Advancing Translational Sciences (NCATS), 2021)
“And” between values parts separate entries of the source, which are not always exact repeats. Equal entries are not always repeated. The campaign covered roughly 580,000 compounds. About 6,100 (1.1%) were called active. This list was built around the results that the source calls inconclusive (neither active nor inactive); the mix of calls is not that of the screen. Calls follow the shape of the dose curve; as a rule, active = well fitted inhibition curve with a large enough effect; inconclusive = small, poorly fitted or top-dose-only effect, or another doubt; inactive = no such curve, though single readings can be large or run the other way. A potency beside an inconclusive call is a rough fit, not a confirmed value.

Chains of the proteins cited; added tags and fusions are not shown.
UniProt P18054, whole entry, looked up: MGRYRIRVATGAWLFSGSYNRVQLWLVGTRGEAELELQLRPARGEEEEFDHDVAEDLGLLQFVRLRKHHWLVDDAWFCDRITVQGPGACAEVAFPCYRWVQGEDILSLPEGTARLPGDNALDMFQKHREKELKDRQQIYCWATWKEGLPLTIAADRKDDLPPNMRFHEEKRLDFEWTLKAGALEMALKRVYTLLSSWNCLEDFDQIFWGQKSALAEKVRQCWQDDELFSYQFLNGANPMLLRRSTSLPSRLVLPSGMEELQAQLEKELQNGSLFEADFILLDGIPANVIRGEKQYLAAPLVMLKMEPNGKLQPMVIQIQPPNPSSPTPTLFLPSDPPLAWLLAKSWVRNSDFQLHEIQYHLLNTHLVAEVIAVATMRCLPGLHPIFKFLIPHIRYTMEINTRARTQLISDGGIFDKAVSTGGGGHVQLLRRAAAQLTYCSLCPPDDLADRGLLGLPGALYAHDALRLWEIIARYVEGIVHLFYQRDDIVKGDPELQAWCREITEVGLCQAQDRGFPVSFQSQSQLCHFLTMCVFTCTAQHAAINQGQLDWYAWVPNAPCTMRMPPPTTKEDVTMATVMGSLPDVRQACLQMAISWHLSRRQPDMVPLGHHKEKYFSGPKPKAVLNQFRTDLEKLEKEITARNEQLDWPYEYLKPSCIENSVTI

target: Polyunsaturated fatty acid lipoxygenase ALOX12 (Homo sapiens) (UniProt P18054); assay: Primary qHTS assay for inhibitors of human arachidonate 12S-lipoxygenase (ALOX12): Round 2; conditions: purified 12hLO, xylenol orange hydroperoxide absorbance; series mostly up to 108 µM
How it was run: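 Purified human 12hLO (150 nM final) in 25 mM Hepes, 0.01% Triton X-100, pH 7.0 was preincubated 15 min at room temperature with compound. Then 40 uM arachidonic acid was added, 30 min. Hydroperoxide was read by Fe-XO absorbance ratio 573/405 nm.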
Potency is read from the fitted curve at half-maximal effect.

Q: `CC1(C)Nc2ccc(O)cc2-c2c1ssc2=S` was tested. Which Potency did it give?
A: active: 44.7 µM

Q: For `CC(=O)Oc1ccc2c(C)c(CC(=O)NC3CCCCCC3)c(=O)oc2c1OC(C)=O`, which Potency is on record?
A: inconclusive: 1.58 µM [inhibitor, full curve]

Q: Which Potency does the source give for `CCn1cnc2sc(C(=O)N3CCN(c4ccc(OC)cc4)CC3)c(C)c2c1=O` here?
A: inconclusive: 17.8 µM [inhibitor, partial curve, poor fit]

Q: `Brc1ccc(-c2noc(-c3ccc4c(c3)OCO4)n2)o1` was tested. Which Potency did it give?
A: inconclusive: 2.51 µM [inhibitor, full curve, poor fit]

Q: With `CCOc1ccc(CCNC(=O)CCCc2nnc3n(CC(C)C)c(=O)c4sccc4n23)cc1` as the compound, how does the Potency read?
A: inactive

Q: For `CCOC(=O)c1cc(S(=O)(=O)Nc2ccc(OC)c(Cl)c2)[nH]n1`, which Potency is on record?
A: inconclusive: 112 µM [inhibitor, partial curve, poor fit]

Q: How did the Potency turn out when `CN(CCC#N)C(=O)COC(=O)[C@H](Cc1ccccc1)N1C(=O)c2ccccc2C1=O` was run?
A: inconclusive: 141 µM [inhibitor, partial curve, poor fit]

Q: With `COc1cc(/C=C/C(=O)c2ccc(NS(=O)(=O)c3ccc(C)cc3)cc2)cc(OC)c1O` as the compound, how does the Potency read?
A: inconclusive: 39.8 µM [inhibitor, partial curve]

Q: How did the Potency turn out when `CC(C)OCCCn1c(SCc2cccc(Br)c2)nc2c(sc3ccccc32)c1=O` was run?
A: inactive

Q: For `c1ccc(Nc2nc(NCc3ccco3)c3ccccc3n2)cc1`, which Potency is on record?
A: inconclusive: 44.7 µM [inhibitor, partial curve, poor fit] and inconclusive: 79.4 µM [inhibitor, partial curve, poor fit]

Q: `COc1cc(CN(C(=O)c2ccc3c(c2)NC(=O)C(C)S3)C2CC2)ccc1OC(F)F` (stereo not drawn) was tested. Which Potency did it give?
A: inactive

Q: How did the Potency turn out when `CCC(CC)c1nnc(NC(=O)Cc2c[nH]c3ccccc23)s1` was run?
A: inactive

Q: How did the Potency turn out when `COc1ccc(/C(=N/OC(=O)c2cccc(F)c2)c2nccc3cc(OC)c(OC)cc23)cc1OC` was run?
A: inconclusive: 0.178 µM [inhibitor, full curve, poor fit]

Q: With `COCCNC(=O)c1ccc2c(c1)N(Cc1cccc(Cl)c1)C(=O)c1ccccc1S2(=O)=O` as the compound, how does the Potency read?
A: inconclusive: 56.2 µM [inhibitor, partial curve, poor fit]

Q: With `CCOc1cc(-c2nc3ccccn3c2NCC2CCCO2)ccc1O` (stereo not drawn) as the compound, how does the Potency read?
A: inconclusive: 1 µM [inhibitor, full curve, poor fit]

Q: `c1ccc(NCCN2CCCC2)cc1` was tested. Which Potency did it give?
A: inconclusive: 10 µM [inhibitor, full curve]

Q: How did the Potency turn out when `C/C(CC(C)(C)c1ccccc1)=N\NC(=O)CC#N` was run?
A: inactive

Q: For `Cc1cnc(C(=O)Nc2cccc(OC3CCCC3)c2)cn1`, which Potency is on record?
A: inconclusive: 50.1 µM [inhibitor, single point]

Q: How did the Potency turn out when `O=C(O)CC1(CC(=O)NCc2ccc(-c3cccs3)cc2)CCCCC1` was run?
A: inactive

Q: For `CC(=O)Nc1ccc(CN(C)c2c(C)nc3ccc(C(=O)NC4CCN(Cc5ccccc5)CC4)cn23)cc1`, which Potency is on record?
A: inactive

Q: `O=S(=O)(Nc1ncccn1)c1ccccc1` was tested. Which Potency did it give?
A: inconclusive: 39.8 µM [inhibitor, partial curve, poor fit]

Q: `Oc1ccc(/C=N\Nc2nncc(-c3ccccc3)n2)cc1` was tested. Which Potency did it give?
A: inactive

Q: For `C(=C\c1ccccc1)/C=N/Nc1nc2ccccc2[nH]1`, which Potency is on record?
A: inconclusive: 44.7 µM [inhibitor, partial curve, poor fit]

Q: `CN(C)c1ccc(C(=O)N2CCC3(CC2)NC(=O)N(c2ccccc2)N3)cc1` was tested. Which Potency did it give?
A: active: 2.82 µM

Q: With `COCc1ccccc1-c1nccc2c(=O)cc(-c3cnn(C)c3)oc12` as the compound, how does the Potency read?
A: inconclusive: 50.1 µM [inhibitor, full curve]

Q: Which Potency does the source give for `Cc1ccc(CNC(=O)c2ccc(COc3ccccc3)cc2)cc1` here?
A: inactive

Q: `CC(=O)c1ccc(NC(=O)Nc2ccc(Cl)cc2)cc1` was tested. Which Potency did it give?
A: inconclusive: 3.16 µM [inhibitor, full curve, poor fit]

Q: Which Potency does the source give for `CCc1ccc(NS(=O)(=O)c2cccc3nsnc23)cc1` here?
A: inconclusive: 141 µM [inhibitor, partial curve, poor fit]

Q: With `CCC1CN=C(Nc2cccc(C)c2)S1` (stereo not drawn) as the compound, how does the Potency read?
A: inconclusive: 0.199 µM [inhibitor, full curve, poor fit]

Q: For `Cc1nn2c(c1-c1ccccc1C(C)C)N(Cc1ccc3c(c1)CCO3)CCC2`, which Potency is on record?
A: inactive

Q: How did the Potency turn out when `FC(F)(F)c1ccc(Cl)c(N/N=C/c2ccc(Br)cc2)c1` was run?
A: inconclusive: 50.1 µM [inhibitor, partial curve, poor fit]

Q: Which Potency does the source give for `CCOc1ccc(Br)cc1S(=O)(=O)Nc1cccc(S(=O)(=O)Nc2ccccc2C(=O)O)c1` here?
A: inconclusive: 44.7 µM [inhibitor, partial curve, poor fit]

Q: For `Cc1cc(/C=C2/C(=N)N3C(=NC2=O)SN=C3S(C)(=O)=O)c(C)n1-c1ccc(F)cc1`, which Potency is on record?
A: inconclusive: 44.7 µM [inhibitor, partial curve]

Q: `COc1cc2ncnc(N3CCN(c4ccc(F)cc4)CC3)c2cc1OC` was tested. Which Potency did it give?
A: inactive

Q: For `O=[S+]([O-])(NCC1CN(Cc2ccc3c(c2)CCO3)CC12CN(c1ccccc1)C2)c1ccccc1` (stereo not drawn), which Potency is on record?
A: inconclusive: 50.1 µM [inhibitor, partial curve, poor fit]

Q: With `Cc1nc2c(c(N3CCCC(COc4cccc(F)c4)C3)n1)CCNCC2` (stereo not drawn) as the compound, how does the Potency read?
A: inactive

Q: For `CC(C)(C)c1ccc(OCCCNCc2ccccc2)cc1`, which Potency is on record?
A: inconclusive: 11.2 µM [inhibitor, partial curve, poor fit]

Q: With `CN(CCn1ccnc1)Cc1cn(-c2ccccc2)nc1-c1ccc2c(c1)OCO2` as the compound, how does the Potency read?
A: inactive

Q: `COc1ccc(NC(=O)c2cc(C3CCCCN3S(=O)(=O)c3c(C)noc3C)on2)c(C)c1` (stereo not drawn) was tested. Which Potency did it give?
A: inactive

Q: `COc1ccc2[nH]cc(CCNC(=O)C[C@H]3NC(=O)c4ccccc4NC3=O)c2c1` was tested. Which Potency did it give?
A: inactive

Q: For `O=C(Nc1nnc(SCc2c(Cl)cccc2Cl)s1)C1CC(=O)N(c2ccc3c(c2)OCCO3)C1` (stereo not drawn), which Potency is on record?
A: inconclusive: 22.4 µM [inhibitor, partial curve, poor fit]

Q: With `Cc1ccc(C(=O)O)cc1-n1cccc1` as the compound, how does the Potency read?
A: inconclusive: 20 µM [inhibitor, partial curve, poor fit]

Q: Which Potency does the source give for `CN(c1ccccc1)S(=O)(=O)c1cc(Cl)ccc1Cl` here?
A: inconclusive: 0.501 µM [inhibitor, single point]

Q: Which Potency does the source give for `CCSC(=O)N=Nc1ccc(O)cc1` here?
A: inconclusive: 56.2 µM [inhibitor, partial curve, poor fit]

Q: Which Potency does the source give for `CCCCC(=O)c1c(O)c2ccccc2oc1=O` here?
A: inconclusive: 25.1 µM [inhibitor, single point]

Q: For `CC(CC(=O)Nc1cccc(Br)c1)n1ccnc1` (stereo not drawn), which Potency is on record?
A: inactive

Q: `COc1cccc(/C=N/n2c(-c3n[nH]c4c3CCC4)n[nH]c2=S)c1O` was tested. Which Potency did it give?
A: active: 39.8 µM

Q: For `CCC(=O)Nc1cccc2c1C(=O)N(C)C2=O`, which Potency is on record?
A: inactive

Q: For `Cc1ccc(CNC(=O)CSc2ncc(-c3ccc(F)cc3)o2)cc1`, which Potency is on record?
A: inconclusive: 56.2 µM [inhibitor, single point]

Q: For `Cc1cc(CSc2nnc(-c3ccc(Cl)cc3)n2Cc2ccco2)no1`, which Potency is on record?
A: inconclusive: 39.8 µM [inhibitor, partial curve, poor fit]

Q: `O=C(c1ccccc1C(F)(F)F)N1CCc2nc3cc[nH]n3c(=O)c2C1` was tested. Which Potency did it give?
A: inactive

Q: Which Potency does the source give for `Cc1ccc(S(=O)(=O)Nc2ccc(NC(=O)Nc3ccc(F)cc3F)cc2)cc1` here?
A: inconclusive: 50.1 µM [inhibitor, partial curve, poor fit]

Q: With `CCN(C(=O)CCNC(=O)c1cccc(C)c1)C12CC3CC(CC(C3)C1)C2` as the compound, how does the Potency read?
A: inactive

Q: How did the Potency turn out when `CSc1ccc(S(=O)(=O)N2CCN(C)CC2)cc1` was run?
A: inactive

Q: For `Cc1ccc(C)c(C(=O)COC(=O)CNS(=O)(=O)c2ccccc2)c1`, which Potency is on record?
A: inconclusive: 50.1 µM [inhibitor, partial curve, poor fit]

Q: How did the Potency turn out when `COc1ccc(CN2CCN(C(=O)C3CCC(CNS(=O)(=O)c4ccc(C)cc4)CC3)CC2)c(OC)c1OC` (stereo not drawn) was run?
A: inconclusive: 14.1 µM [inhibitor, partial curve, poor fit]

Q: How did the Potency turn out when `COC(=O)/C=C/C(=O)Nc1ccc(O)c(Cl)c1` was run?
A: inconclusive: 44.7 µM [inhibitor, partial curve, poor fit]

Q: With `CC(C)c1ccc(NC2CCCN(C(=O)c3cnc4ccccn4c3=O)C2)cc1` (stereo not drawn) as the compound, how does the Potency read?
A: inconclusive: 31.6 µM [inhibitor, full curve, poor fit]

Q: How did the Potency turn out when `O=C(/C=C/c1cccc(Cl)c1)c1ccc([N+](=O)[O-])o1` was run?
A: inconclusive: 44.7 µM [inhibitor, partial curve, poor fit]

Q: With `CCCn1c(=O)c(C(=O)NNS(=O)(=O)c2ccc(C)cc2)c(O)c2ccccc21` as the compound, how does the Potency read?
A: inactive

Q: `O=S1(=O)CC(N2CC=CC2)CN1Cc1cn(Cc2ccc(F)cc2)nn1` (stereo not drawn) was tested. Which Potency did it give?
A: inconclusive: 112 µM [inhibitor, single point]

Q: With `CN1CCn2cnc(C(=O)NCc3ccccc3)c2C1=O` as the compound, how does the Potency read?
A: inactive

Q: With `CC(C)(C)c1ccc(NC(=O)O[C@@H]2CO[C@H]3[C@@H]2OC[C@@H]3Nc2nccc(-c3cccc(F)c3)n2)cc1` as the compound, how does the Potency read?
A: inactive

Q: How did the Potency turn out when `Cc1[nH]c2ccccc2c1C(=O)CN1CCN(C/C=C/c2ccccc2)CC1` was run?
A: inconclusive: 56.2 µM [inhibitor, partial curve, poor fit]

Q: For `O=C(COc1cc2oc(=O)c3c(c2cc1Cl)CCC3)Nc1ccccn1`, which Potency is on record?
A: inactive

Q: Which Potency does the source give for `C[C@@H]1CN(C(=O)c2ccc3c(c2)CCC3)C[C@]1(C)O` here?
A: inactive

Q: With `COc1cccc(-c2cn3c(n2)sc2cc(C(=O)NCc4cccs4)ccc23)c1` as the compound, how does the Potency read?
A: inconclusive: 112 µM [inhibitor, partial curve, poor fit]

Q: With `S=c1[nH]nc(SCc2ccccc2)c2[nH]cnc12` as the compound, how does the Potency read?
A: inconclusive: 44.7 µM [inhibitor, partial curve, poor fit]
